About 3,700 (1.2%) of roughly 300,000 compounds were called active. Inconclusive means that the source gave no clear call. Such entries were picked first, then a sample of the others. The call rests on the fitted dose curve; tested in HEK293 cells. Where the call is inconclusive, the potency comes from a doubtful curve fit.
assay: qHTS for Inhibitors of binding or entry into cells for Lassa Virus; conditions: Lassa virus pseudotype entry inhibition, cell reporter; series mostly up to 37.9 µM; further: nearly all actives have a fitted effect of over 50% in size
Potency means the concentration at half of the fitted maximal effect.

For COc1ccc(CNC(=O)C2CCN(C(=O)c3ccc(-c4ccccc4)cc3)CC2)cc1, which Potency is on record?
The Potency was active: 2.51 µM.

For O=C(O)c1ccc(N2C(=O)CC(N3CCN(c4cccc(C(F)(F)F)c4)CC3)C2=O)cc1 (stereo unspecified), which Potency is on record?
Its Potency is “inactive”.

For COCc1nnc(NC(=O)c2ccc3c(c2)OCO3)s1, which Potency is on record?
The Potency was inconclusive: 14.1 µM [inhibitor, partial curve, poor fit].

For COc1cc2[nH]c(=O)n(CCCC(=O)NCc3ccccc3)c(=O)c2cc1OC, which Potency is on record?
Its Potency is inconclusive: 1.12 µM [inhibitor, full curve, poor fit].

Which Potency does the source give for CCc1cc(C(=O)N=Nc2c(O)[nH]c3c(Br)cc(Br)cc23)c2ccccc2n1 here?
Its Potency is “inactive”.

With COc1ccccc1CNC(=O)CN1C(=O)CCc2cc(S(=O)(=O)N3CCOCC3)ccc21 as the compound, how does the Potency read?
The Potency was inconclusive: 1.78 µM [activator, partial curve, poor fit].

With O=C(Cc1cccs1)Nc1nc2c(s1)CCCC2 as the compound, how does the Potency read?
The Potency was active: 2.59 µM.

Which Potency does the source give for O=C(Nc1ccc2nc(SCC(=O)N3CCCC3)sc2c1)c1ccccc1F here?
Its Potency is “inactive”.

With Cc1ccc(-c2n[nH]c(=S)n2/N=C\c2ccco2)cc1 as the compound, how does the Potency read?
The Potency was inconclusive: 20 µM [inhibitor, single point].

For CCc1nc(Nc2ccccc2O)c2oc3ccccc3c2n1, which Potency is on record?
The Potency was inconclusive: 12.6 µM [inhibitor, partial curve].

Which Potency does the source give for COc1ccc(CNC(=O)c2c(Nc3ccccc3C)sc(C(=O)c3ccccc3)c2N)cc1 here?
The Potency was inconclusive: 35.5 µM [inhibitor, single point].

For CCOc1ccc(/C(O)=C2/C(=O)C(=O)N(Cc3cccnc3)C2c2ccc(N(C)C)cc2)c(C)c1 (stereo unspecified), which Potency is on record?
The Potency was inconclusive: 0.0651 µM [inhibitor, full curve, poor fit].

With CC(C)C(=O)N1CC(=O)Nc2ccc(F)cc2C1c1ccc(F)cc1 (stereo unspecified) as the compound, how does the Potency read?
Its Potency is inconclusive: 28.2 µM [inhibitor, single point].

For COc1ccc(N2CCN(C(=S)NC(=O)c3cccs3)CC2)c([N+](=O)[O-])c1, which Potency is on record?
Its Potency is inconclusive: 35.5 µM [inhibitor, single point].

With C=CCN(C#N)c1nc(OC)nc(N2CCCC2)n1 as the compound, how does the Potency read?
The Potency was inconclusive: 23.1 µM [inhibitor, single point].

For Cn1c(SCc2ccc(Br)cc2)nnc1-c1cccs1, which Potency is on record?
Its Potency is inconclusive: 0.058 µM [inhibitor, full curve, poor fit].

For O=C(c1ccc(Cl)cc1)N1CCc2c([nH]c3ccccc23)C1C(F)(F)F (stereo unspecified), which Potency is on record?
The Potency was inconclusive: 7.94 µM [inhibitor, partial curve, poor fit].

Which Potency does the source give for C/C(N)=C(/C#N)C(=O)CSc1nnc(COc2ccccc2Cl)o1 here?
Its Potency is “inactive”.

With COCCn1c(=O)[nH]c(=O)c2cc(C(=O)c3cc(Cl)ccc3O)cnc21 as the compound, how does the Potency read?
The Potency was inconclusive: 17.8 µM [inhibitor, partial curve, poor fit].

Which Potency does the source give for CCc1nnc(NC(=O)c2ccc(-c3ccc(Cl)cc3)o2)s1 here?
Its Potency is “inactive”.

For COc1ccccc1Nc1c2c(nc3ccc(NC(=O)c4cccc(F)c4)cc13)CCCC2, which Potency is on record?
Its Potency is inconclusive: 35.5 µM [inhibitor, single point].

With CCOC(=O)N1CCN(C(=O)c2cc(COc3cccc(C(F)(F)F)c3)on2)CC1 as the compound, how does the Potency read?
Its Potency is inconclusive: 17.8 µM [inhibitor, partial curve, poor fit].

For CC1Cc2cc(-c3csc(NC(=O)Cc4ccccc4)n3)ccc2N1S(C)(=O)=O (stereo unspecified), which Potency is on record?
The Potency was inconclusive: 13 µM [inhibitor, partial curve].

Which Potency does the source give for CCOC(=O)c1nnc(-c2ccc(C)cc2)nc1Oc1ccccc1Cl here?
The Potency was inconclusive: 6.31 µM [inhibitor, full curve, poor fit].

Which Potency does the source give for CCOC(=O)c1c(-c2ccc(OC)cc2)csc1NC(=O)CCN1CCOCC1 here?
Its Potency is inconclusive: 8.91 µM [inhibitor, partial curve].

With CC(C)c1ccc(NC(=O)CSc2nc(=O)n(Cc3cccnc3)c3c2CCC3)cc1 as the compound, how does the Potency read?
Its Potency is “inactive”.

With Cc1ccc(S(=O)(=O)c2cc3c(=O)n4ccccc4nc3n(CCCN3CCOCC3)c2=N)cc1C as the compound, how does the Potency read?
Its Potency is inconclusive: 0.631 µM [inhibitor, full curve, poor fit].

Which Potency does the source give for COc1ccc(-n2c(O)c(/C=N/Nc3nc(C)cc(C)n3)c3ccccc3c2=O)cc1OC here?
The Potency was inconclusive: 7.94 µM [inhibitor, partial curve, poor fit].

Which Potency does the source give for CCCCN(CCCC)CCNC(=O)c1cc(=O)[nH]c2ccc(S(=O)(=O)N3CCCCCC3)cc12 here?
The Potency was “inactive”.

For Cc1ccc(CNC(=O)C2CCCN(S(=O)(=O)c3ccc4c(ccn4C)c3)C2)cc1 (stereo unspecified), which Potency is on record?
The Potency was inconclusive: 11.2 µM [inhibitor, partial curve].

For O=C(c1cc(-c2ccccc2)on1)N1CCN(Cc2ccc3c(c2)OCO3)CC1, which Potency is on record?
Its Potency is “inactive”.

With Nc1ccc(C(=O)OCC(=O)N2CCc3ccccc3C2)cc1[N+](=O)[O-] as the compound, how does the Potency read?
The Potency was inconclusive: 5.8 µM [inhibitor, single point].

With COc1ccc(C(C(=O)Nc2ccc(C(C)C)cc2)N(Cc2ccco2)C(=O)CC2NC(=O)NC2=O)cc1 (stereo unspecified) as the compound, how does the Potency read?
Its Potency is inconclusive: 15.8 µM [inhibitor, partial curve, poor fit].

With COc1ccc(CCNC(=O)Cn2cc(S(=O)(=O)Cc3cccc(Cl)c3)c3ccccc32)cc1OC as the compound, how does the Potency read?
Its Potency is inconclusive: 35.5 µM [inhibitor, single point].

Which Potency does the source give for COc1ccc(-c2noc(CSc3nnc(-c4ccc(Cl)cc4)n3C)n2)cc1OC here?
The Potency was “inactive”.

With CCOC(=O)C1C(=O)OC(C)(C)C1C(C)C(=O)c1ccccc1 (stereo unspecified) as the compound, how does the Potency read?
The Potency was inconclusive: 0.231 µM [activator, single point].

Which Potency does the source give for O=C(COn1nnc2ccccc21)NCC1CCCCC1 here?
The Potency was inconclusive: 6.51 µM [activator, single point].

For CCOc1ccc(OCCCCN2CCCC2)cc1, which Potency is on record?
Its Potency is “inactive”.

Which Potency does the source give for COc1ccc(CCN(Cc2cc3cc(C)ccc3[nH]c2=O)C(=O)N2CCCC2)cc1OC here?
Its Potency is inconclusive: 32.6 µM [inhibitor, single point].

For O=C(NCCCN1CCCC1=O)C1CCN(S(=O)(=O)N2CCOCC2)CC1, which Potency is on record?
The Potency was inconclusive: 2.24 µM [activator, partial curve, poor fit].

With c1ccc2c(c1)nc(Nc1ccc3c(c1)OCO3)c1nnnn12 as the compound, how does the Potency read?
Its Potency is “inactive”.
